This experiment addresses GST-tagged third PDZ domain of mPDZ (UniProt O75970). As to the kind of experiment: pull-down.

This note sets out measurements from paper doi:10.1101/717041.

No constants are given. Whether binding was seen depends on the method and setting. Binding seen in cells or lysates may run through a third protein. Binding calls can cover weak binding; strength is not graded here. Sequences can lack the tags named with a protein.

B1: His-Daple-CT (aa 1650 to 2028) (domain or fragment, UniProt Q9P219 1650-2028)
chain: GTAPPYVGVRPCSASPSSEMVTLEEFLEESNRSSPTHDTPSCRDDLLSDYFRKASDPPAIGGQPGPPAKKEGAKMPTNFVAPTVKMAAPTSEGRPLKPGQYVKPNFRLTEAEAPPSVAPRQAQPPQSLSLGRPRQAPVPPASHAPASRSASLSRAFSLASADLLRASGPEACKQESPQKLGAPEALGGRETGSHTLQSPAPPSSHSLARERTPLVGKAGSSCQGPGPRSRPLDTRRFSLAPPKEERLAPLHQSATAPAIATAGAGAAAAGSGSNSQLLHFSPAAAPAARTKPKAPPRSGEVATITPVRAGLSLSEGDGVPGQGCSEGLPAKSPGRSPDLAPHLGRALEDCSRGSVSKSSPASPEPGGDPQTVWYEYGCV
Turning to B1, the binding entry is recorded as “binds”.
